About 7,700 (2.3%) of roughly 330,000 compounds were called active. Inconclusive results, whose numbers are uncertain, are shown with a selection of clear calls. Calls come from the whole dose curve; as a rule, active = well fitted inhibition curve with a large enough effect; inconclusive = small, poorly fitted or top-dose-only effect, or effect the other way; inactive = flat fitted curve, though single readings scatter. Potencies of inconclusive entries are doubtful fits and often do not repeat.
Test: qHTS screen for small molecules that inhibit ELG1-dependent DNA repair in human embryonic kidney (HEK293T) cells expressing luciferase-tagged ELG1; note: nearly all actives have a fitted effect of over 55% in size
Details: HEK293T ELG1-luciferase reporter, luminescence, 16 h, DNA damage induced by 5-fluorouridine; activity change, negative = inhibition: at 46.1 µM (top of the series)
Method in brief: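 Luminescence from the luciferase reporter, measured 30 min after ONE-Glo reagent at room temperature, was the read-out. Beforehand, 2,000 cells per well were exposed for 16 hr at 37 °C to 5-fluorouridine together with compound or vehicle.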
% is set by controls: 0 for no effect and ±100 for the full control effect; potency is the fitted concentration of half-maximal effect.

Q: Which Potency does the source give for `Cc1ccc(S(=O)(=O)NCC(=O)N(CC2CCCO2)C(C(=O)NC2CCCCC2)C(C)C)cc1` (configuration not stated) here?
A: Its Potency is “inactive”.

Q: For `O=C(O)CCn1c(O)c(C=C2N=c3ccccc3=N2)sc1=S`, which Potency is on record?
A: Its Potency is inconclusive: 23.1 µM [inhibitor, single point].

Q: For `COc1ccccc1Nc1cc(C(=O)NCc2cccnc2)c2ccccc2n1`, which Potency is on record?
A: The Potency was “inactive”.

Q: For `C=CCn1c(SCC(=O)N2CCc3ccccc3C2)nc2sc(C)c(C)c2c1=O`, which Potency is on record?
A: Its Potency is inconclusive: 29.1 µM [inhibitor, partial curve, poor fit].

Q: For `CN1CCC(=NNC(=O)C(=O)Nc2ccccc2)CC1`, which Potency is on record?
A: Its Potency is inconclusive: 16.4 µM [activator, partial curve, poor fit].

Q: Which Potency does the source give for `CCOC(=O)N1CCN(C(=O)c2ccc3c(Cl)c4c(nc3c2)CCCC4)CC1` here?
A: The Potency was inconclusive: 18.3 µM [inhibitor, partial curve, poor fit].

Q: Which Potency does the source give for `FC(F)(F)c1ccnc(Oc2ccc(C3=NCCS3)cc2)c1` here?
A: Its Potency is inconclusive: 7.3 µM [activator, partial curve].

Q: Which Potency does the source give for `Cc1cc(N/N=C/c2ccccc2)nc(N)n1` here?
A: Its Potency is inconclusive: 20.6 µM [activator, partial curve].

Q: With `C/C(=N\NC(=O)CCc1ccccc1)C1C(=O)c2ccccc2C1=O` as the molecule, how does the Potency read?
A: Its Potency is inconclusive: 18.3 µM [activator, partial curve, poor fit].

Q: With `O=C(CCCc1nc(-c2ccc(Cl)cc2)no1)NC1CCCC1` as the molecule, how does the Potency read?
A: Its Potency is inconclusive: 18.3 µM [inhibitor, partial curve].

Q: For `COc1ccc(NC(=O)CSc2nnc(Cn3cnc4ccccc43)o2)cc1`, which Potency is on record?
A: Its Potency is inconclusive: 29.1 µM [activator, partial curve, poor fit].

Q: Which Potency does the source give for `C=CCOc1ccc(/C=C\c2nc(O)c([N+](=O)[O-])c(=O)[nH]2)cc1OCC` here?
A: The Potency was “inactive”.

Q: For `Cc1ccc(-c2nc(COC(=O)C3=NN(c4ccccc4)C(=O)CC3)cs2)cc1`, which Potency is on record?
A: The Potency was inconclusive: 11.2 µM [activator, partial curve].

Q: Which Potency does the source give for `CCNc1nc(NC(C)C)nc(Oc2ccc(=O)n(C)n2)n1` here?
A: Its Potency is inconclusive: 20.6 µM [activator, partial curve].

Q: For `Cc1ccc(-c2cc(C(=O)Nc3ccc(S(=O)(=O)Nc4ncccn4)cc3)c3ccccc3n2)cc1`, which Potency is on record?
A: Its Potency is inconclusive: 16.4 µM [activator, partial curve, poor fit].

Q: Which Potency does the source give for `Cc1ccc(O)c(N)c1` here?
A: The Potency was inconclusive: 29.1 µM [activator, single point].

Q: Which Potency does the source give for `O=C(COC(=O)c1cccc(S(=O)(=O)NCc2ccccc2)c1)NCC1CCCO1` (configuration not stated) here?
A: Its Potency is “inactive”.

Q: For `COc1ccc(S(=O)(=O)N2CCCCCC2)cc1C(=O)N(C)Cc1ccc(C(C)(C)C)cc1`, which Potency is on record?
A: The Potency was inconclusive: 18.3 µM [inhibitor, single point].

Q: For `Cc1ccccc1N1CC(C(=O)Nc2ccc(S(=O)(=O)N3CCOCC3)cc2)CC1=O` (configuration not stated), which Potency is on record?
A: Its Potency is “inactive”.

Q: For `CCOC(=O)c1c(C)oc2c1c(C(c1cccnc1)N1CCN(C)CC1)c(O)c1ccccc12` (configuration not stated), which Potency is on record?
A: The Potency was inconclusive: 7.31 µM [activator, partial curve].

Q: Which Potency does the source give for `CCC(CC)C(=O)Nc1cccc(C(=O)N2CCCCCC2)c1` here?
A: The Potency was “inactive”.

Q: With `Cc1cccc(N2CCN(c3nc(C)cc(C)c3C#N)CC2C)c1` (configuration not stated) as the molecule, how does the Potency read?
A: The Potency was inconclusive: 13 µM [inhibitor, partial curve, poor fit].

Q: Which Potency does the source give for `CSCCC(NC(=O)c1ccccc1Cl)C(=O)NCCc1ccccn1` (configuration not stated) here?
A: The Potency was “inactive”.

Q: With `COc1ccc(CNC(=O)COC(=O)c2n[nH]c3ccccc23)cc1OC` as the molecule, how does the Potency read?
A: The Potency was active: 16.4 µM.

Q: For `COc1ccc(-c2c(-c3ccccc3OC)sc3ccccc23)cc1OC`, which Potency is on record?
A: The Potency was “inactive”.

Q: With `COc1ccc(CCNC(=O)Cn2cnc3c2c(=O)n(C)c(=O)n3C)cc1OC` as the molecule, how does the Potency read?
A: Its Potency is inconclusive: 35.5 µM [activator, single point].

Q: For `Cc1ccc(C)c(NC(=O)CCN2C(=O)c3ccccc3C2=O)c1`, which Potency is on record?
A: Its Potency is “inactive”.

Q: With `CCCc1cc(C(=O)Nc2cc(C)on2)no1` as the molecule, how does the Potency read?
A: Its Potency is inconclusive: 23.1 µM [activator, partial curve, poor fit].

Q: For `CC(C)CC(c1nnnn1C(C)C)N1CCN(C(=O)c2ccco2)CC1` (configuration not stated), which activity change, negative = inhibition is on record?
A: Its activity change, negative = inhibition is inconclusive: 211% [activator].

Q: For `O=C(CCNS(=O)(=O)c1ccccc1)N1CCC(Cc2ccccc2)CC1`, which Potency is on record?
A: The Potency was inconclusive: 18.3 µM [inhibitor, partial curve, poor fit].

Q: For `O=C(COc1ccc(Br)cc1)N(Cc1cccs1)C1CCS(=O)(=O)C1` (configuration not stated), which Potency is on record?
A: Its Potency is inconclusive: 16.4 µM [activator, partial curve, poor fit].

Q: Which Potency does the source give for `CCCCCCSc1ccc(-c2nc3cnccn3c2NCCCC)cc1` here?
A: Its Potency is “inactive”.

Q: Which Potency does the source give for `COc1cc(C(=O)N2CCSCC2)ccc1OC1CCN(C(C)=O)CC1` here?
A: The Potency was inconclusive: 20.6 µM [activator, partial curve, poor fit].

Q: With `C=CCc1cccc(/C=N/NC(=O)C(C)Nc2ccc(C)cc2)c1O` (configuration not stated) as the molecule, how does the Potency read?
A: Its Potency is “inactive”.

Q: For `Cc1ccccc1C(=O)NNC1=NCCC1`, which Potency is on record?
A: Its Potency is “inactive”.

Q: With `CCNC(=S)NC1CC2CCCC(C1)N2CCc1ccccc1` (configuration not stated) as the molecule, how does the Potency read?
A: Its Potency is inconclusive: 10 µM [inhibitor, partial curve, poor fit].

Q: With `CCOC(=O)C1(Cc2cccc(OC)c2)CCN(Cc2cccc(O)c2)CC1` as the molecule, how does the Potency read?
A: The Potency was inconclusive: 16.4 µM [inhibitor, partial curve].

Q: For `CC1(C)CC2CC(C)(CN2C(=O)COC(=O)c2cccc(O)c2)C1` (configuration not stated), which Potency is on record?
A: Its Potency is “inactive”.

Q: For `COc1ccc(N2CCN(C(=O)CCNS(=O)(=O)c3ccccc3)CC2)cc1`, which Potency is on record?
A: The Potency was “inactive”.

Q: With `O=C(NC(CC(=O)N1CCN(c2ccc([N+](=O)[O-])cc2)CC1)c1ccccc1)c1ccccc1Cl` (configuration not stated) as the molecule, how does the Potency read?
A: Its Potency is inconclusive: 25.9 µM [inhibitor, single point].

Q: With `O=C(NCC1(c2ccccc2)CCCC1)c1ccc(Br)o1` as the molecule, how does the Potency read?
A: The Potency was “inactive”.

Q: For `Cc1c(C(=O)Nc2ccc(F)cc2)nnn1-c1cccc(C(F)(F)F)c1`, which Potency is on record?
A: Its Potency is active: 5.8 µM.

Q: With `COC(=O)Cc1ccc(NC(=S)NCCSc2ccc(C)cc2)cc1` as the molecule, how does the Potency read?
A: Its Potency is “inactive”.

Q: For `O=C(O)c1cccc(S(=O)(=O)N(Cc2ccccc2)c2ccc(Cl)cc2)c1`, which Potency is on record?
A: The Potency was “inactive”.

Q: With `Cc1nc2ccccc2c(=O)n1/N=C/c1ccc(O)c(O)c1O` as the molecule, how does the Potency read?
A: The Potency was “inactive”.

Q: With `COCCCN(C(=O)c1cc(Cl)nc2ccccc12)c1c(N)n(Cc2ccccc2)c(=O)[nH]c1=O` as the molecule, how does the Potency read?
A: The Potency was “inactive”.

Q: Which Potency does the source give for `COc1cccc(/C=N/Nc2nc3ccccc3n3cnnc23)c1O` here?
A: The Potency was active: 8.2 µM.

Q: For `COc1ccccc1NC(=S)N(Cc1cccs1)C1CCCC1`, which Potency is on record?
A: Its Potency is inconclusive: 14.6 µM [inhibitor, partial curve].

Q: For `Fc1ccc(-c2csc(N3CCOCC3)n2)cc1`, which Potency is on record?
A: The Potency was inconclusive: 16.4 µM [activator, partial curve].

Q: For `Cc1cccc(NC(=O)c2nc[nH]c2C(=O)N[C@@H](C)c2ccccc2)c1`, which Potency is on record?
A: Its Potency is inconclusive: 29.1 µM [inhibitor, single point].

Q: Which Potency does the source give for `CCC(=O)Nc1ccc(-c2nn3c(C)nnc3s2)cc1C` here?
A: The Potency was inconclusive: 18.4 µM [activator, single point].

Q: With `O=C(O)c1ccc(NC(=S)NC(=O)c2cncc(Br)c2)cc1` as the molecule, how does the Potency read?
A: Its Potency is inconclusive: 1.03 µM [activator, full curve, poor fit].

Q: Which Potency does the source give for `O=C(Nc1ccc2nc(C3CC3)n(Cc3ccc(F)cc3)c(=O)c2c1)c1ccco1` here?
A: Its Potency is inconclusive: 29.1 µM [inhibitor, single point].

Q: With `COC(=O)NCC(c1ccc2c(c1)OCO2)N1CCN(c2ccccc2)CC1` (configuration not stated) as the molecule, how does the Potency read?
A: Its Potency is “inactive”.

Q: For `O=C(Nc1nc2c(F)cc(F)cc2s1)c1ccco1`, which Potency is on record?
A: Its Potency is inconclusive: 7.3 µM [activator, partial curve].

Q: With `CCOC(=O)c1c(/N=C/c2ccccc2O)sc2c1CCC2` as the molecule, how does the Potency read?
A: The Potency was “inactive”.

Q: With `O=C(Nc1cccc(O)c1)c1cc(S(=O)(=O)N2CCCC2)ccc1Cl` as the molecule, how does the Potency read?
A: The Potency was inconclusive: 18.4 µM [inhibitor, partial curve, poor fit].

Q: Which Potency does the source give for `O=C(NC(=S)Nc1nc2c(s1)CCCC2)c1ccccc1` here?
A: The Potency was inconclusive: 2.06 µM [activator, full curve].

Q: Which Potency does the source give for `Cc1ccc(NC(=O)c2cc([N+](=O)[O-])ccc2N2CCOCC2)cc1S(=O)(=O)N(C)C` here?
A: The Potency was inconclusive: 4.61 µM [inhibitor, partial curve, poor fit].

Q: Which Potency does the source give for `COc1cc(CC(=O)OCC(=O)Nc2ccc(Cl)c(S(=O)(=O)N(C)C)c2)cc(OC)c1OC` here?
A: Its Potency is inconclusive: 20.6 µM [activator, partial curve, poor fit].

Q: With `O=C(CN1C(=O)C2CCCCC2C1=O)Nc1nc(-c2ccccn2)cs1` (configuration not stated) as the molecule, how does the Potency read?
A: The Potency was inconclusive: 10.3 µM [inhibitor, partial curve].

Q: Which Potency does the source give for `Cc1ccc(S(=O)(=O)N2CCC(C(=O)OCC(=O)NC3(C#N)CCCCC3)CC2)cc1C` here?
A: Its Potency is “inactive”.

Q: With `COc1ccc(/C=N/Nc2nc3ccccc3c(=O)n2-c2ccccc2)cc1OC` as the molecule, how does the Potency read?
A: The Potency was inconclusive: 29.1 µM [inhibitor, single point].

Q: Which Potency does the source give for `O=C(CCCCCCCC(=O)NNC(=O)Nc1ccccc1)NNC(=O)Nc1ccccc1` here?
A: The Potency was inconclusive: 29.1 µM [activator, single point].

Q: For `Cc1cc([N+](=O)[O-])ccc1NC(=O)c1ccco1`, which Potency is on record?
A: The Potency was “inactive”.

Q: For `CN1CCc2c(sc(NC(=O)c3cc(Cl)sc3Cl)c2C(N)=O)C1`, which Potency is on record?
A: The Potency was “inactive”.

Q: Which Potency does the source give for `CCOC(=O)NNc1ccccc1` here?
A: Its Potency is inconclusive: 29.1 µM [inhibitor, single point].

Q: Which Potency does the source give for `CCOC(=O)C(=CNNc1ccccc1)C(=O)OCC` here?
A: Its Potency is active: 6.51 µM.

Q: With `Nc1nnnn1/N=C/c1ccccc1C(F)(F)F` as the molecule, how does the Potency read?
A: Its Potency is “inactive”.

Q: With `CC(C)c1ccc(NC(=O)COc2ccc(F)cc2C(=O)c2cnn(-c3ccccc3)c2)cc1` as the molecule, how does the Potency read?
A: Its Potency is inconclusive: 2.31 µM [activator, full curve].

Q: For `CC1Cc2ccccc2N1C(=O)CSc1nc2cc3c(cc2cc1C#N)OCO3` (configuration not stated), which Potency is on record?
A: The Potency was inconclusive: 29.1 µM [inhibitor, single point].

Q: For `COc1cc(/C=C/c2ccc3cccc([N+](=O)[O-])c3n2)ccc1OCC#N`, which Potency is on record?
A: Its Potency is active: 23.1 µM.

Source: PubChem BioAssay AID504467 (National Center for Advancing Translational Sciences (NCATS), 2011)
